# Source: PubChem BioAssay AID1347076 (National Center for Advancing Translational Sciences (NCATS), 2019)
# Screen size: about 400,000 compounds; about 13,000 (3.2%) were called active. The inconclusive results got no clear call from the source; some entries with a clear call stand among them for comparison. The call rests on the fitted dose curve; in most records, active means well fitted cell-killing curve with a large enough effect; inconclusive means small, poorly fitted or top-dose-only effect, or effect the other way; inactive means flat fitted curve, though single readings scatter. Potencies beside an inconclusive call are fits to weak or partial responses and may not hold up.
# Assay: qHTS assay for MDR1-selective chemotherapeutics: Primary screen using the drug-selected MDR subline cells KB-V1; further: nearly all actives have a fitted effect of over 60% in size
# Settings: KB-V1 MDR cells viability, CellTiter-Glo, 72 h; activity change, negative = cytotoxicity: at 46.1 µM (top of the series)
# Summary of the method: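 Compound-treated KB-V1 multidrug-resistant cells, 72 h, 37 degrees C; viability by CellTiter-Glo. Fitted qHTS curves give the values.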
# On the % scale 0 is the no-effect control and ±100 the full control effect; potency means the concentration at half of the fitted maximal effect.
Compound,Potency,"activity change, negative = cytotoxicity"
CC1CCC(C(C)C)C(OC(=O)C[n+]2cc(-c3ccc(Cl)cc3)n3c2CCCCC3)C1 (stereo not given),inactive,
COCCN(C(=O)CSc1nc(N)cc(=O)[nH]1)c1c(N)n(Cc2ccccc2)c(=O)[nH]c1=O,"inconclusive: 14.6 µM [rising, partial curve]",
CCOC(=O)C1=C[C@@H](C(C)(C)C)N(S(=O)(=O)c2ccc([N+](=O)[O-])cc2)[C@H]1c1ccccc1,"inconclusive: 8.2 µM [cytotoxic, partial curve]",
COc1cccc(Cn2c(=O)n(-c3cccc(Cl)c3C)c(=O)c3c4c(sc32)CN(C(C)=O)CC4)c1,"inconclusive: 29.1 µM [cytotoxic, single point]",
COc1ccc(NC(=O)CN(C)C(=O)/C=C/c2cn(-c3ccccc3)nc2-c2cccs2)cc1,inactive,
Cc1ccc(C(=O)NNC(=O)c2ccc(S(=O)(=O)N3CCCCC3)cc2)cc1,inactive,
Cc1ccc(NC(=O)CSc2nc3ccc(NC(=O)c4cccs4)cc3s2)c(C)c1,inactive,
COc1cc(/C=N/OCC(=O)Nc2ccc(OC(F)F)cc2)ccc1OCc1ccccc1,active: 8.2 µM,
COc1ccc(-c2cc(C(=O)Nc3c(Cl)cc(Cl)cc3Cl)c3ccccc3n2)cc1OC,"inconclusive: 10.3 µM [cytotoxic, partial curve, poor fit]",
CC(C)[C@H](NC(=O)c1ccccc1Cl)C(=O)Nc1nc(-c2ccccn2)cs1,"inconclusive: 1.64 µM [cytotoxic, full curve, poor fit]",
CN(CC(=O)N1CCN(c2ccccc2)CC1)C1CCCc2ccccc21 (stereo not given),"inconclusive: 11.6 µM [cytotoxic, partial curve]",
COC(=O)CN1C(=O)S/C(=C/c2cc(C)n(C)c2C)C1=O,active: 16.4 µM,
CC(C)NC(=O)c1ccc2c(c1)N(CC(=O)NC1CCCCC1)C(=O)C(C)(C)O2,"inconclusive: 20.6 µM [cytotoxic, partial curve, poor fit]",
Cc1cc(=O)oc2c(O)c(O)ccc12,"inconclusive: 29.1 µM [cytotoxic, single point]",
COc1ccc(OC)c(C(=O)c2coc3ccc(O)c(CN4CCOCC4)c23)c1,active: 7.31 µM,
CC(COc1ccccc1)NC(C)C(O)c1ccc(O)cc1 (stereo not given),"inconclusive: 20.6 µM [cytotoxic, partial curve, poor fit]",
COc1cc(/C=C2\SC(=O)N(c3ccc(Cl)cc3)C2=O)cc([N+](=O)[O-])c1O,inactive,
CCOc1ccc(C(=O)CC(NCc2cccs2)C(=O)O)cc1 (stereo not given),inactive,
O=C(CCl)N(CCc1ccccc1)CCc1ccccc1,"inconclusive: 29.1 µM [cytotoxic, single point]",
Cc1ccc(S(=O)(=O)N2CCN(CC(=O)NC3CCCc4ccccc43)CC2)c(C)c1 (stereo not given),active: 4.11 µM,
CCc1nc(Nc2cccc(F)c2)c2oc3ccccc3c2n1,"inconclusive: 16.4 µM [cytotoxic, partial curve]",
CCC(Nc1ccc(-c2nc(-c3ccco3)no2)cc1[N+](=O)[O-])c1ccccc1 (stereo not given),inactive,
CN(C)C(CNC(=O)c1ccc(-c2ccccc2)cc1)c1ccccc1 (stereo not given),inactive,
O=C(N/N=C/c1nn(-c2ccccc2)cc1-c1ccccc1)c1ccncc1,"inconclusive: 18.4 µM [cytotoxic, single point]",

Compound,Potency,"activity change, negative = cytotoxicity"
Cc1cccc(CC(=O)N2CCN(C(=O)c3ccco3)CC2)c1,inactive,
CC(C)CC(=O)NC(NC(=S)Nc1sc2c(c1C#N)CCCC2)C(Cl)(Cl)Cl (stereo not given),inactive,
CC(=O)N1CCC2(CC1)C/C(=N\NC(=S)Nc1ccc(C)cc1)c1cc(O)ccc1O2,inactive,
COc1cccc(NC(=O)COC(=O)c2ccccc2SCC(=O)N2CCCC2)c1,"inconclusive: 10.3 µM [cytotoxic, partial curve]",
c1cnc(N2CCN(c3nc4ccccc4n4cnnc34)CC2)nc1,active: 7.31 µM,
O=C1CS/C(=N/N=C/c2ccccc2)N1Cc1ccco1,"inconclusive: 32.6 µM [cytotoxic, partial curve, poor fit]",
O=C(NCCc1ccccc1)C1CCN(S(=O)(=O)N2CCC3(CC2)OCCO3)CC1,inactive,
Cc1nc2cncc(Br)c2n1C,"inconclusive: 23.1 µM [rising, single point]",
Cc1oc(C(N)=O)nc1-c1ccccc1,"inconclusive: 0.461 µM [rising, full curve, poor fit]",
O=Cc1cccn1Cc1ccc(Cl)cc1Cl,"inconclusive: 28.2 µM [cytotoxic, single point]",
CC(C)(C)c1ccc(C(O)CCCN2CCC(C(O)(c3ccccc3)c3ccccc3)CC2)cc1 (stereo not given),inactive,
CC1CCCN(C(=O)c2ccc(Cl)c(S(=O)(=O)N3CCCCCC3)c2)C1 (stereo not given),inactive,
O=C(NCc1ccccc1)c1nnc(Cc2cccc(F)c2)o1,inactive,
Cc1ccc(Cn2c(O)c(N=O)c3ccccc32)cc1,inactive,
O=c1cc(C(F)F)oc2c1ccc1ccccc12,"inconclusive: 29.1 µM [cytotoxic, single point]",
Cc1cc(F)ccc1S(=O)(=O)Nc1ccccc1C(=O)NC1CCN(Cc2ccccc2)CC1,"inconclusive: 29.1 µM [cytotoxic, single point]",
CCC(=O)Nc1cccc(NC(=O)c2ccc(C)c([N+](=O)[O-])c2)c1,active: 14.6 µM,
O=C(N/N=C/c1cnc2ccccc2n1)c1cccc(F)c1,"inconclusive: 16.4 µM [cytotoxic, single point]",
O=C(CC1Sc2ccccc2NC1=O)Nc1ccccc1[N+](=O)[O-] (stereo not given),active: 16.4 µM,
Fc1cccc(NCc2cn3ccccc3n2)c1,"inconclusive: 25.9 µM [cytotoxic, partial curve, poor fit]",
CCC(=O)N(CCc1ccc(S(N)(=O)=O)cc1)C1CC(=O)N(c2ccc(OC)cc2)C1=O (stereo not given),inactive,
CCOc1cc(C(=O)Nc2ccc3c(c2)OCO3)ccc1OC(F)F,active: 20.6 µM,
COc1ccc(/C(C)=N/NC(=O)Cc2c(C)nc(C)[nH]c2=O)cc1,"inconclusive: 11.6 µM [cytotoxic, partial curve, poor fit]",
COc1cccc(CNC(=O)CN(C)S(=O)(=O)c2cnc[nH]2)c1,"inconclusive: 29.1 µM [cytotoxic, single point]",

# Taken from above.
# Potency, `COc1ccc(NC(=O)CN(C)C(=O)/C=C/c2cn(-c3ccccc3)nc2-c2cccs2)cc1` is entered as inactive
# Potency, `Fc1cccc(NCc2cn3ccccc3n2)c1` is entered as inconclusive: 25.9 µM [cytotoxic, partial curve, poor fit]
# Potency, `O=C(NCc1ccccc1)c1nnc(Cc2cccc(F)c2)o1` is entered as inactive
# Potency, `CCOC(=O)C1=C[C@@H](C(C)(C)C)N(S(=O)(=O)c2ccc([N+](=O)[O-])cc2)[C@H]1c1ccccc1` is entered as inconclusive: 8.2 µM [cytotoxic, partial curve]
# Potency, `CCOc1cc(C(=O)Nc2ccc3c(c2)OCO3)ccc1OC(F)F` is entered as active: 20.6 µM

# (listing goes on)

Compound,Potency,"activity change, negative = cytotoxicity"
CCOc1ccc(CCNC(=O)C2CC(=O)N(c3ccc4c(c3)OCCO4)C2)cc1OCC (stereo not given),"inconclusive: 20.6 µM [cytotoxic, partial curve, poor fit]",
O=C(COC(=O)Cc1ccsc1)Nc1ccc(Br)cc1,"inconclusive: 9.2 µM [rising, partial curve, poor fit]",
COc1ccc(C(=O)NCC(C)(C)N2CCOCC2)cc1S(=O)(=O)NCc1ccc(Cl)cc1,"inconclusive: 10.3 µM [rising, partial curve]",
CCOc1ccc2c(c1)C(=O)c1cc(OCC(=O)O)ccc1-2,,inconclusive: -28.4%
O=C(c1ccc(F)cc1F)N1CCCC(c2nc(-c3ccc(F)cc3)no2)C1 (stereo not given),"inconclusive: 18.4 µM [cytotoxic, single point]",
Cc1ccc(-c2csc(C(O)c3cccc(Cl)c3)n2)cc1C (stereo not given),"inconclusive: 13 µM [rising, partial curve, poor fit]",
COc1ccc(C(=O)NC2CCCc3ccccc32)c(OC)c1OC (stereo not given),"inconclusive: 7.31 µM [cytotoxic, partial curve]",
O=C(NNS(=O)(=O)c1ccccc1)c1ccc([N+](=O)[O-])cc1,"inconclusive: 29.1 µM [rising, single point]",
CCN(CC(=O)Nc1ccccc1C(F)(F)F)C(=O)c1ccc2[nH]c3c(c2c1)CC(C)CC3 (stereo not given),"inconclusive: 11.6 µM [cytotoxic, partial curve]",
CC(=O)c1ccc(N2CCN(C(=O)c3ccc(Cn4c(=S)[nH]c5ccc(N6CCOCC6)cc5c4=O)cc3)CC2)cc1,"inconclusive: 8.2 µM [cytotoxic, partial curve]",
CCn1nc(C)cc1C(=O)Sc1cccc(Cl)c1,inactive,
COc1ccc(CC(NC(C)=O)C(=O)NC2CCN(C(=O)Nc3ccccc3C)CC2)cc1OC (stereo not given),inactive,
O=C(COc1ccc(Cl)cc1Br)NCC(c1ccco1)N1CCCC1 (stereo not given),active: 5.8 µM,
CCN(CC(=O)Nc1c(F)cccc1F)C(=O)c1ccc(Sc2nncn2C)c([N+](=O)[O-])c1,"inconclusive: 11.6 µM [rising, partial curve, poor fit]",
N#C/C(=C\c1ccc(Cl)cc1)C(=O)NCC1CCCO1 (stereo not given),inactive,
CSc1nc(N)c2c3c(sc2n1)COC(C(C)C)C3 (stereo not given),"inconclusive: 6.51 µM [cytotoxic, full curve, poor fit]",
C[C@H](NS(=O)(=O)c1ccc(Cl)cc1)C(=O)OCC(=O)NCCc1ccc(S(N)(=O)=O)cc1,"inconclusive: 29.1 µM [rising, single point]",
O=C(NC(c1ccccc1)c1cnccn1)C1CCN(CCOc2ccc(Cl)cc2Cl)CC1 (stereo not given),inactive,
Cc1cccc(NC(=O)Cn2c(=O)n(Cc3ccc(C(=O)NCc4ccc5c(c4)OCO5)cc3)c(=O)c3ccccc32)c1,"inconclusive: 9.2 µM [cytotoxic, partial curve, poor fit]",
OCCCNc1c2ccccc2nc2ccccc12,"inconclusive: 23.1 µM [cytotoxic, partial curve, poor fit]",
Cc1ccc(NC(=O)CSc2nc(-c3ccc(F)cc3)cc(C(F)(F)F)c2C#N)cc1,inactive,
C[C@@H]1CN([C@@H](C)CO)C(=O)c2cc(NS(C)(=O)=O)ccc2O[C@H]1CN(C)Cc1ccc(Oc2ccccc2)cc1,inactive,
